Measurements as given in article PMC10716038, “Talin and kindlin use integrin tail allostery and direct binding to activate integrins” (Nature Structural & Molecular Biology, 2023).
Where a chain is given by its changes, count along the chain named. Numbers in names are those of the source. These are yes or no findings as the source states them, for the method shown. Some entries that bind do so weakly or less than the wild type.

Amino acid sequences for entries named in this document (tags omitted). A change or cut given only in a name is not applied to a line headed by its entry. Chains listed by the source or under a name are the forms on record and can include a tag or linker. Residues count along the entry.
β1 transmembrane and cytoplasmic tail polypeptide (β1-TM–CT) in nanodiscs (P05556, residues 726-798): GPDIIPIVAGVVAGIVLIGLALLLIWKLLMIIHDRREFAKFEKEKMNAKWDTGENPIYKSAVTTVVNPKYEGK
ATTO 488-labelled β1-CT (488–β1-CT) (P05556, residues 752-798): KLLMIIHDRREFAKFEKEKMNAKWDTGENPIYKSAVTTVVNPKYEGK
ATTO 488-labelled β1-CT^Y783A (P05556, form named): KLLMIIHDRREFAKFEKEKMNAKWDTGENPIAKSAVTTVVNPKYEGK

Tests used:
[1] = molecular target: T1, α5-TM lacking the cytoplasmic domain (tailless α5-TM) in nanodiscs (UniProt P11688); test: flow cytometry-based reporter-displacement assay (FC-RDA) on beads; biotinylated TM–CT in nanodiscs (10% PIP2 or PIP3, 90% DMPC) on streptavidin Dynabeads; reporters 100 nM 565–THD1 or 50 nM 647–KIND2; unlabelled THD1 or KIND2 titrated; 20 mM Tris pH 7.5, 200 mM NaCl, 10 min at room temperature; the lipids add to the binding; both purified
T1 sequence (chain, biotin (biotin-maleimide)): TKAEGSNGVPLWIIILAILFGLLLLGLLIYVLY

[2] = molecular target: β1 transmembrane and cytoplasmic tail polypeptide (β1-TM–CT) in nanodiscs (UniProt P05556); test: as above
[3] = molecular target: ATTO 488-labelled β1-CT (488–β1-CT) (UniProt P05556); test: MST; as a7, with a second unlabelled protein present at near-saturating concentration (named in the quantity or in the printed words); apparent constants (Kd,app*); both purified
[4] = molecular target: ATTO 488-labelled β1-CT (488–β1-CT) (UniProt P05556); test: MST; ATTO 488-labelled β-CT peptide (50–200 nM) held constant, one unlabelled protein titrated; 20 mM Tris pH 7.5, 200 mM NaCl, 1 mM TCEP, 0.05% Tween-20; apparent affinities (near-saturation only); both purified
[5] = molecular target: T2, F0 domain of KIND2 (KIND2-F0) (UniProt Q8CIB5); test: NMR titration; 15N-labelled KIND2-F0 (100 µM) or KIND2-F0 Y13A (70 µM) observed (1H-15N HSQC); unlabelled TLN1-F3 or TLN1-F3 K402E added at equal concentration; 298 K; both purified
T2 sequence: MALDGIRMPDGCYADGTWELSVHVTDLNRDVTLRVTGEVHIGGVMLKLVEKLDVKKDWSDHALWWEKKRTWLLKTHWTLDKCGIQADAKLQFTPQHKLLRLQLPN

[6] = molecular target: T3, ATTO 488-labelled β3-CT^Y772A (UniProt O54890); test: MST; as a7, with a second unlabelled protein present at near-saturating concentration (named in the quantity or in the printed words); apparent constants (Kd,app*); both purified
T3 sequence (peptide, ATTO 488 at the N terminus): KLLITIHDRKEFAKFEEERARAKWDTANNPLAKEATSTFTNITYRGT

[7] = molecular target: ATTO 488-labelled β1-CT^Y783A (UniProt P05556); test: as above

For “talin-1 head domain (THD1) (from UniProt P26039 1-405) (domain or fragment)”, the binding [1] was “no binding”, the binding [2] was “binds” and the binding [3] was “binds”. The binding [4] was “binds”.

With “THD1^K402E (from UniProt P26039 1-405) (domain or fragment)” the binding [2] was “binds”.

B1: F3 domain of TLN1 (TLN1-F3) (domain or fragment, UniProt P26039 305-405, looked up)
chain: LKTYGVSFFLVKEKMKGKNKLVPRLLGITKECVMRVDEKTKEVIQEWSLTNIKRWAASPKSFTLDFGDYQDGYYSVQTTEGEQIAQLIAGYIDIILKKKKS
notes: Used unlabelled, 15N-labelled or partially deuterated in NMR; also called T1-F3; source: E. coli (DE3) Rosetta 2, purified (IMAC, SEC); not shown: His10, N-terminal, cleaved; SUMO, N-terminal, cleaved
In the case of B1, the binding [5] is reported as “binds”.

B2: kindlin-2 (KIND2) (protein, UniProt Q8CIB5 1-680)
chain: MALDGIRMPDGCYADGTWELSVHVTDLNRDVTLRVTGEVHIGGVMLKLVEKLDVKKDWSDHALWWEKKRTWLLKTHWTLDKCGIQADAKLQFTPQHKLLRLQLPNMKYVKVKVNFSDRVFKAVSDICKTFNIRHPEELSLLKKPRDPTKKKKKKLDDQSEDEALELEGPLIMPGSGSIYSSPGLYSKTMTPTYDAHDGSPLSPTSAWFGDSALSEGNPGILAVSQPVTSPEILAKMFKPQALLDKAKTNQGWLDSSRSLMEQDVKENEALLLRFKYYSFFDLNPKYDAIRINQLYEQAKWALLLEEIECTEEEMMMFAALQYHINKLSIMTSENHLNNSDKEVDEVDAALSDLEITLEGGKTSTILGDITSIPELADYIKVFKPKKLTLKGYKQYWCTFKDTSISCYKSREESSGTPAHQLNLRGCEVTPDVNISGQKFNIKLLIPVAEGMNEIWLRCDNEKQYAHWMAACRLASKGKTMADSSYNLEVQNILSFLKMQHLNPDPQLIPDQITTDVNPECLVSPRYLKKYKSKQITARILEAHQNVAQMSLIEAKMRFIQAWQSLPEFGITHFIARFQGGKREELIGIAYNRLIRMDASTGDAIKTWRFSNMKQWNVNWEIKMVTVEFADEVRLSFICTEVDCKVVHEFIGGYIFLSTRAKDQNESLDEEMFYKLTSGWV
With B2 the binding [1] was “no binding”, the binding [2] was “binds” and the binding [6] was “binds”. The binding [7] was “binds”, the binding [3] was “binds” and the binding [4] was “binds”.

B3: KIND2^Y13A (protein, UniProt Q8CIB5 1-680)
chain: B2 chain with Y13A
For B3, the binding [2] was “binds”.
